In the supplement of paper PMC10849652:
This is one part of the list.

Chains of the proteins cited; added tags and fusions are not shown. Lines headed by an entry give the natural chain unless they say otherwise; changes in a name come on top.
UniProt Q8N9R8: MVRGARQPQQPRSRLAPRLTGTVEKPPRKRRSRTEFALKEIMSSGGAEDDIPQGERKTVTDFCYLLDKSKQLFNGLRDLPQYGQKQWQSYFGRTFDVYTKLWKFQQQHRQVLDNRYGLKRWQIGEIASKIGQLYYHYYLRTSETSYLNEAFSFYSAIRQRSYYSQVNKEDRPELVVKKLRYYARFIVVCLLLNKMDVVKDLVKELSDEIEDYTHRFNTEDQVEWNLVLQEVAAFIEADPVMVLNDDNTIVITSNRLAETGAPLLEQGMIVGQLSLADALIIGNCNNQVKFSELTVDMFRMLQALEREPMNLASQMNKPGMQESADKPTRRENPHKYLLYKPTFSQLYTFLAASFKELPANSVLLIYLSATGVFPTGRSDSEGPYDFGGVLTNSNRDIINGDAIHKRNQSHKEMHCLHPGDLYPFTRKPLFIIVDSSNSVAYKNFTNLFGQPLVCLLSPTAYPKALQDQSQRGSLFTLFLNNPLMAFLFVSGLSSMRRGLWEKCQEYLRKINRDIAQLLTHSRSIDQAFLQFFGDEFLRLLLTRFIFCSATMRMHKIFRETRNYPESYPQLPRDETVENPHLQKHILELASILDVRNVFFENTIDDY
UniProt Q9UPW6: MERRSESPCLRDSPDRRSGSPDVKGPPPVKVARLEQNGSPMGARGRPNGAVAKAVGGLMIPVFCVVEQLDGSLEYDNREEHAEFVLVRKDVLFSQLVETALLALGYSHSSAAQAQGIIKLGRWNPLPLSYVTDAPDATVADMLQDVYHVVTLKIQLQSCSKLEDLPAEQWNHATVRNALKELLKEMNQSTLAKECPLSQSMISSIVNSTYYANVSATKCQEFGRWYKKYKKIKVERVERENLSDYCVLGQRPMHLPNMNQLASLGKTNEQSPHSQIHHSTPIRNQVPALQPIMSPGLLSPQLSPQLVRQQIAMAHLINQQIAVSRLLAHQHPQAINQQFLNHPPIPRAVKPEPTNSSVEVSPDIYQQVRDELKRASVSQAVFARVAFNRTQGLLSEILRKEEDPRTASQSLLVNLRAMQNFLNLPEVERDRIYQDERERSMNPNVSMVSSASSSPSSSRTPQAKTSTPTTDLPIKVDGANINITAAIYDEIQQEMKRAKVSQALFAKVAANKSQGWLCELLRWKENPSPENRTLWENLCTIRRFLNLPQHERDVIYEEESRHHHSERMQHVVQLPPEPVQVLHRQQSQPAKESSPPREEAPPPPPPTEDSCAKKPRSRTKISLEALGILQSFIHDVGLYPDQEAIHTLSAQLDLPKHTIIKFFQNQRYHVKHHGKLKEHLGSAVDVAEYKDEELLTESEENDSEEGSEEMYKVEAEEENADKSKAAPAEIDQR
UniProt Q7L3V2: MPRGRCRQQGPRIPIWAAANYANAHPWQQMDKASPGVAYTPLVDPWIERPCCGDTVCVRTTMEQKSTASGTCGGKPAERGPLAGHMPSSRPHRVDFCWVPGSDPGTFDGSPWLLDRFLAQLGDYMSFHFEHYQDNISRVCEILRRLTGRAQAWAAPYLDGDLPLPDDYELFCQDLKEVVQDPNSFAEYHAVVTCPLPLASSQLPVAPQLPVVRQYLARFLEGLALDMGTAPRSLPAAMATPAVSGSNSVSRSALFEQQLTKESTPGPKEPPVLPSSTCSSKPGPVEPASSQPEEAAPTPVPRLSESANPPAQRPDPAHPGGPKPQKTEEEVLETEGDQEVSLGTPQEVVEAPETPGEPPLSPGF
UniProt Q9H4B6: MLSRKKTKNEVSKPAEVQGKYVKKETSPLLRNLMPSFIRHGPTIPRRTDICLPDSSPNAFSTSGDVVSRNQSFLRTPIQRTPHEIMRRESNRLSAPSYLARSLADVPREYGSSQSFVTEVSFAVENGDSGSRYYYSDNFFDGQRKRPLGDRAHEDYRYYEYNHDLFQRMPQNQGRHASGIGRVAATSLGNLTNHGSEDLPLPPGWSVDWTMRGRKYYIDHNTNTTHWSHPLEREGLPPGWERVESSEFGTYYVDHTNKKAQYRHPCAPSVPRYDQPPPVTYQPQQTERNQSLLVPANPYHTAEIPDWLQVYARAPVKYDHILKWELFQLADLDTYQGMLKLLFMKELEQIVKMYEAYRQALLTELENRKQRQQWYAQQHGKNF
UniProt O00560: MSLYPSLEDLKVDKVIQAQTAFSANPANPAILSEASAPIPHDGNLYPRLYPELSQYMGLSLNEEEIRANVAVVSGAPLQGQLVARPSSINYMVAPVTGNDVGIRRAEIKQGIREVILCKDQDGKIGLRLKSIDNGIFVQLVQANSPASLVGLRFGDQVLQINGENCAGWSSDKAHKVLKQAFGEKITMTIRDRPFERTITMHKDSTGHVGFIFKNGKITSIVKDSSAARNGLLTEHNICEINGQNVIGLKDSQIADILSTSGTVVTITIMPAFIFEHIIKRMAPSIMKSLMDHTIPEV
UniProt O14521: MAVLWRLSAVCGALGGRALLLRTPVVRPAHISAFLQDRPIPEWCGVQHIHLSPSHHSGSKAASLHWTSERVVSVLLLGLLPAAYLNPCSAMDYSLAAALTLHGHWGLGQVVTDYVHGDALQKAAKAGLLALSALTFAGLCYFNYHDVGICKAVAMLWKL
UniProt A6ZKI3: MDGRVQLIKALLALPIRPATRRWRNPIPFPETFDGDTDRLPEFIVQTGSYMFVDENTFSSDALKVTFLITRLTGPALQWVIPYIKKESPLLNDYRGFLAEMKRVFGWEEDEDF
UniProt P48443: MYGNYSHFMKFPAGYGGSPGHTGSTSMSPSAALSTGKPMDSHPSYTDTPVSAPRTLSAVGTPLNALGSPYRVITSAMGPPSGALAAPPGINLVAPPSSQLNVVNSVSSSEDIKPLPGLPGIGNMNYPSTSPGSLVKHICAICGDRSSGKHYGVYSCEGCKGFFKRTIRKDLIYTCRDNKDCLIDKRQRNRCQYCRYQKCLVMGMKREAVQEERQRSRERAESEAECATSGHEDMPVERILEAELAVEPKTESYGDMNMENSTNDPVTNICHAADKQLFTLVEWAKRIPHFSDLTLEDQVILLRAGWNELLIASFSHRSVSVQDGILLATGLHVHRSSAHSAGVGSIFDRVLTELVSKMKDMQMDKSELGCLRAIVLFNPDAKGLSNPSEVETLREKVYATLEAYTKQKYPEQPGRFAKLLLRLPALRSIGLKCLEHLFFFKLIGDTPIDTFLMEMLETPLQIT
UniProt Q86WG5: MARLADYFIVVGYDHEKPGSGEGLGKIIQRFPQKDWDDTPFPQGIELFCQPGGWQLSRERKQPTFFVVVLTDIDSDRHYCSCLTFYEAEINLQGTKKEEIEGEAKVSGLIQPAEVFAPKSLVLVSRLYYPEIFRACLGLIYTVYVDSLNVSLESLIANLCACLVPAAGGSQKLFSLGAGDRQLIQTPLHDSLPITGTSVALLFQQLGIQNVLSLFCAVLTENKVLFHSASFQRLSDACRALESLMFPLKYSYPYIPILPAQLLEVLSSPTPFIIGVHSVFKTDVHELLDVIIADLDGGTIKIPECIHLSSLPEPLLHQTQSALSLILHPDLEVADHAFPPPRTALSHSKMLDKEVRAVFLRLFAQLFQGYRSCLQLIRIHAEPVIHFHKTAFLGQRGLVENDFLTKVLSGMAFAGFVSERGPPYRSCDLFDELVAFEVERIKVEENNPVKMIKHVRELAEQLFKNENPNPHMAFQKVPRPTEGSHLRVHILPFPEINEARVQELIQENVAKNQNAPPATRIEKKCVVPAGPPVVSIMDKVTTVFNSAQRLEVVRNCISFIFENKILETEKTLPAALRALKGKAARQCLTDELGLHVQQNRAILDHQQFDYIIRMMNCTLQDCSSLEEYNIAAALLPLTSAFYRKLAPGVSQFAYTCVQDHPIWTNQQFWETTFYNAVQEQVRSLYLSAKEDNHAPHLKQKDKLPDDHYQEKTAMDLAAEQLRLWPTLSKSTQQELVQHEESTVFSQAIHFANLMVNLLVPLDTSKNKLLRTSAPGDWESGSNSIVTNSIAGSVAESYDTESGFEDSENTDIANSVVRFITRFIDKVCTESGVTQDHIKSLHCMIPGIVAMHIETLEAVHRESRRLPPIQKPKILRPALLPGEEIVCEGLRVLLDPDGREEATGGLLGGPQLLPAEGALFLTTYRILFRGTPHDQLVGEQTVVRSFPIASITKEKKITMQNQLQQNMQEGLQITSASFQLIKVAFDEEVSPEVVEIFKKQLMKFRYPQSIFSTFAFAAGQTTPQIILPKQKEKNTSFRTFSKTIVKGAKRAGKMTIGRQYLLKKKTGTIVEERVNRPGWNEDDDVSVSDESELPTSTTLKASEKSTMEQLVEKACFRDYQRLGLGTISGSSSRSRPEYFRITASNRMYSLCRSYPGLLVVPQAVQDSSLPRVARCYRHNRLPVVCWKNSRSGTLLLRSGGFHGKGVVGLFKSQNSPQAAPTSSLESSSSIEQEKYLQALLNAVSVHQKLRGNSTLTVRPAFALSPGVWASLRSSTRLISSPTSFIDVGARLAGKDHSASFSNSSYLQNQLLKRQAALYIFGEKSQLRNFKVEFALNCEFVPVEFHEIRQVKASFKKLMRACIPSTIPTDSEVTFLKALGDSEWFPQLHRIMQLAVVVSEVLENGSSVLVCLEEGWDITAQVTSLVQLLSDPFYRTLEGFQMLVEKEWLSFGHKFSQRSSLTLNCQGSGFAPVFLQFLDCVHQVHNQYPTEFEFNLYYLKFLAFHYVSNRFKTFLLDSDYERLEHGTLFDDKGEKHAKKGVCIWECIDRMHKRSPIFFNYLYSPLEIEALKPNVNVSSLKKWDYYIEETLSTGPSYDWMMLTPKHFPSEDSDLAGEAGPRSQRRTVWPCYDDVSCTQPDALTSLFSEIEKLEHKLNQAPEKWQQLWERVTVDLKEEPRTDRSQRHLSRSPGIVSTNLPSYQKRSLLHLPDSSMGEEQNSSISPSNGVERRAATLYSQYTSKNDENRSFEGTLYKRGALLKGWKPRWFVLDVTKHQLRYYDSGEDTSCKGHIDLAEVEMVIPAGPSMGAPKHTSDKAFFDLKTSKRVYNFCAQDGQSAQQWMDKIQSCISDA
UniProt Q99470: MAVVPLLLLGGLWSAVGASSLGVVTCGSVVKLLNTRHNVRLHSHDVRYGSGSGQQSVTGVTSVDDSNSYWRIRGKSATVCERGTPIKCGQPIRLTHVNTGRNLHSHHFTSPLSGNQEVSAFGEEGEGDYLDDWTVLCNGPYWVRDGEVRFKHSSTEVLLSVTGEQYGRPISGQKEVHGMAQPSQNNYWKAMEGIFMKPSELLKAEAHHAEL

What was measured:
Assay in all cases: log2 fold change, soluble protein after heating vs DMSO (PISA); higher = thermal stabilisation; K562 cells, 10 uM, 30 min; active = over 0.2 and 3.5 SD of the protein, either way, in both replicates (recomputed)
[1] = compound: C[C@@H]1COCCN1C2=NC(=NC(=C2)C3(CC3)S(=O)(=O)C)C4=C5C=CNC5=CC=C4
In short: (§1)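 K562 cells at 2×10^6 cells/mL were exposed to 10 μM compound for 30 min, then aliquots were heated for 3 min across 48°C-58°C, pooled, and extracted in PBS containing 0.5% NP-40 at 4°C. The supernatant after 21,000xg for 90 min was taken as soluble protein and measured by TMTpro 16plex LC-MS/MS with channel sums equalised. Thermal stability is reported relative to control samples, with values from duplicates. Fold changes are given on a log2 scale.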

crizotinib = compound: C[C@@H](Oc1cc(-c2cnn(C3CCNCC3)c2)cnc1N)c1c(Cl)ccc(F)c1Cl [crizotinib]
In short: as §1

[2] = compound: C[C@H](C1=CC=C(C=C1)C(=O)NC2=C3C=CNC3=NC=C2)N
In short: as §1

duvelisib = compound: C[C@H](Nc1ncnc2nc[nH]c12)c1cc2cccc(Cl)c2c(=O)n1-c1ccccc1 [duvelisib]
In short: as §1

[3] = compound: Cc1cc(SCc2sc(-c3ccc(C(F)(F)F)cc3)nc2C)ccc1OCC(=O)O
In short: as §1

doramapimod = compound: Cc1ccc(-n2nc(C(C)(C)C)cc2NC(=O)Nc2ccc(OCCN3CCOCC3)c3ccccc23)cc1 [doramapimod]
In short: as §1

ispinesib = compound: Cc1ccc(C(=O)N(CCCN)[C@@H](c2nc3cc(Cl)ccc3c(=O)n2Cc2ccccc2)C(C)C)cc1 [ispinesib]
In short: as §1

gandotinib = compound: Cc1cc(Nc2cc(CN3CCOCC3)c3nc(C)c(Cc4ccc(Cl)cc4F)n3n2)n[nH]1 [gandotinib]
In short: as §1

tozasertib = compound: Cc1cc(Nc2cc(N3CCN(C)CC3)nc(Sc3ccc(NC(=O)C4CC4)cc3)n2)n[nH]1 [tozasertib]
In short: as §1

[4] = compound: CS(=O)(=O)c1ccc(-c2cnc(N)c(C(=O)Nc3ccccc3)n2)cc1
In short: as §1

Measured: log2 fold change

RTN4, A0A0U1RQR6
inactive: [1] 0.134

SCAI isoform 2 (UniProt Q8N9R8)
inactive: crizotinib 0.052 | [1] 0.048 | [2] 0.057 | duvelisib 0.056 | [3] -0.206 | doramapimod 0.012 | ispinesib -0.132

SATB2 (UniProt Q9UPW6)
inactive: gandotinib -0.615

RTL10 (UniProt Q7L3V2)
inactive: [1] 0.045 | [2] -0.066 | duvelisib -0.048 | gandotinib 0.084 | tozasertib 0.064 | [3] -0.028 | ispinesib 0.094

SAV1 (UniProt Q9H4B6)
inactive: tozasertib -0.1

SDCBP isoform 2 (UniProt O00560)
inactive: [4] 0.093 | [1] -0.108 | gandotinib 0.058 | [3] 0.069 | ispinesib -0.185

Random excerpt: 2 records from the list, in no set order.
SAV1 (UniProt Q9H4B6)
inactive: tozasertib -0.1

SDCBP isoform 2 (UniProt O00560)
inactive: [4] 0.093 | [1] -0.108 | gandotinib 0.058 | [3] 0.069 | ispinesib -0.185

Remaining list, next part

SDHD (UniProt O14521)
inactive: [4] 0.007 | [1] 0.244 | [2] 0.037 | duvelisib 0.161 | gandotinib -0.043 | tozasertib 0.037 | [3] -0.054 | ispinesib 0.092

RTL8C (UniProt A6ZKI3)
inactive: crizotinib -0.189 | [1] -0.186 | duvelisib 0.097 | gandotinib -0.051 | [3] 0.072 | doramapimod -0.028 | ispinesib -0.055

RXRG (UniProt P48443)
inactive: gandotinib -0.176 | tozasertib 0.411 | ispinesib -0.086

SBF2 (UniProt Q86WG5)
inactive: [1] -0.073 | duvelisib 0.051 | gandotinib 0.069 | [3] -0.198 | ispinesib -0.07

SDF2 (UniProt Q99470)
inactive: crizotinib -0.051 | [1] -0.128 | gandotinib 0.18 | tozasertib 0.015 | doramapimod 0.056
